Tested on: high fat-fed obese mice (C57BL/6-DIO)
Assay: Assay of an anti-diabetic effect in DIO (diet-induced obese) mice
Type: in vivo
Conditions: oral, 30 or 100 mg/kg b.i.d. for 15 days
Excerpt: (1) Assay of an Anti-Diabetic Effect of the Compounds in DIO (Diet-Induced Obese) Mice
Male, 12-weeks old high fat-fed obese mice (C57BL/6-DIO, Charles River Japan) were orally administered with the compounds of the present invention twice a day for 15 days. During the experiment, mice were provided high fat pellet diet (D12492, Research Diets) and tap water from bottle of feed water ad libitum. On the first day of the experiment, blood samples were collected from tail vein using a microcapillary to measure plasma glucose concentration. Based on plasma glucose concentration, mice were divided into some groups (five mice per group) and started dosing. The dosing was carried out by oral gavage, after suspending the compounds of the present invention in the previously described vehicle. The control group received only the vehicle. After 15 days from starting the dosing, plasma samples were collected from tail vein at overnight fasting state. Plasma glucose and insulin levels were measured with commercial kits (glucose, Glucose CH-Test Wako®, Wako Pure Chemical Industries, Ltd.; insulin, Rat Insulin ELISA Kit, Morinaga Institute of Biological Science Inc.).

CCOc1nc(C(=O)NCC2CCN(Cc3cnc(-c4ccccn4)s3)CC2)cc(N)c1C#N [Example 115, 4-amino-5-cyano-6-ethoxy-N-((1-((2-(pyridin-2-yl)thiazol-5-yl)methyl)piperidin-4-yl)methyl)picolinamide]
effect on body weight: without any effects | effect on food intake: without any effects

Reference: patent US8809538B2, “Piperidine-containing compounds and use thereof” (Array BioPharma Inc., priority 2009, dated 2014)
